According to PMC7153906:
These are yes or no findings as the source states them, for the method shown. Binding seen in cells or lysates may run through a third protein. Some entries that bind do so weakly or less than the wild type. Tags and fused reporters may be left off the sequences shown.

Target: T1, TMEM98-V5 (mouse) (UniProt Q91X86)
T1 sequence: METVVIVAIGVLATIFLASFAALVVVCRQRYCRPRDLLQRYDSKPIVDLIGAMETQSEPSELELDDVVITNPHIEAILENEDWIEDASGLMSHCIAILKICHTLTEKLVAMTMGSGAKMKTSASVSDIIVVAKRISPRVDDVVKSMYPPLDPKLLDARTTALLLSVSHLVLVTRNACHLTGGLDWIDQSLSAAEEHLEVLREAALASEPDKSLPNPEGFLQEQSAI
Assay: co-IP; HEK293T cells transiently co-transfected (5 μg of each plasmid), lysed after 24 hours in Cell Lysis Buffer; anti-V5 agarose affinity gel at 4°C overnight; Western blot with anti-MYC, anti-FLAG and anti-V5

B1: MYC-MYRF-FLAG (intact, full-length) (protein, UniProt Q3UR85 1-1138)
chain: MEVVDETEALQRFFEGHDISGALEPSNIDTSILEEYIGKEDASDLCFPEISAPASTASFPHGPPAIPGSSGLHHLSPPGSGPSPGRHGPLPPPTYGTPLNCNNNNGMGTAPKPFLGGSGPPIKAEPKAPYAPGTLPDSPPDSGSEAYSPQQVNDPHLLRTITPETLCHVGVSSRLEHPPPPPAHLPGPPPPPPPPPHYPVLQRDLYMKAEPPVPPYAAMGPGLVPPELHHTQQTQVLHQLLQQHGAELPPHPSKKRKHSESPPNTLNAQMLNGMIKQEPGTVTALPPHPARAPSPPWPPQGPLSPGTGSLPLSIARAQTPPWHPPGAPSPGLLQDSDSLSGSYLDPNYQSIKWQPHQQNKWATLYDANYKELPMLTYRVDADKGFNFSVGDDAFVCQKKNHFQVTVYIGMLGEPKYVKTPEGLKPLDCFYLKLHGVKLEALNQSINIEQSQSDRSKRPFNPVTVNLPPEQVTKVTVGRLHFSETTANNMRKKGKPNPDQRYFMLVVALQAHAQNQNYTLAAQISERIIVRASNPGQFESDSDVLWQRAQLPDTVFHHGRVGINTDRPDEALVVHGNVKVMGSLMHPSDLRAKEHVQEVDTTEQLKRISRMRLVHYRYKPEFAASAGIEATAPETGVIAQEVKEILPEAVKDTGDVVFANGKTIENFLVVNKERIFMENVGAVKELCKLTDNLETRIDELERWSHKLAKLRRLDSLKSTGSSGAFSHAGSQFSRAGSVPHKKRPPKLANKSSPAVPDQACISQRFLQGTIIALVVVMAFSVVSMSTLYVLSLRSEEDLVDADGSLAVSTSCLLALLRPQDPGGSEAMCPWSSQSFGTTQLRQSSMTTGLPGTQPSLLLVTKSASGPALRALDLCSSQPCPIVCCSPPVSSPATDPALGPTLTPTPSPSSNPKHSGPGQMAPLPVTNIRAKSWGISANGISYSKHSKSLEPLASPVVPFPGGQSKTKNSPSFNLQSRARRGAPQPSPSPAQFTQTQGQLDPAPSLTSIQLLENSMPITSQYCVPEGACRLGNFTYHIPVSSSTPLHLSLTLQMNSSTPVSVVLCSLTSEEEPCEEGGFLQRFHPHQDTQGTSHQWPVTILSFREFTYHFRVTLLGQANCSSEAIVQPATDYYFHFYRLCD
B1 was tested, and the binding was “binds”.
